Results on two molecules are retold here after article PMC7693506.

Amino acid sequences for entries named in this document (tags omitted).
UniProt Q9H7S9: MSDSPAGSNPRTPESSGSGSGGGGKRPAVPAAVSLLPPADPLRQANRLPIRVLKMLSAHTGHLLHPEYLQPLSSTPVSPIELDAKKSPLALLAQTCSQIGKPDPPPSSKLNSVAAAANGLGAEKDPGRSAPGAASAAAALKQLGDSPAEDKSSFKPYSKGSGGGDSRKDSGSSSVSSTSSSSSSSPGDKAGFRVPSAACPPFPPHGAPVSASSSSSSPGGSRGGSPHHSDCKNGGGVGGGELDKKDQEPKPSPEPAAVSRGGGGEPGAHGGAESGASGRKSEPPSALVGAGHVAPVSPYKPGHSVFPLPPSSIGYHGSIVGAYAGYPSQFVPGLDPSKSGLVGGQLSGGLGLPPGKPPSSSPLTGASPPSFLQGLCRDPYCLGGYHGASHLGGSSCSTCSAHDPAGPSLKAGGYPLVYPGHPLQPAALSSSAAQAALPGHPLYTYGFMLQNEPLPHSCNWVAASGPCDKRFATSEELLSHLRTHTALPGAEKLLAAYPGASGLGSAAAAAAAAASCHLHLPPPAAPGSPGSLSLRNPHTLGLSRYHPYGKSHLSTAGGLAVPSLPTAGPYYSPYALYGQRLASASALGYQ

Assay [1] concerns the target T1, HE4 (human (endogenous in CAOV3 and OVCAR3)) (UniProt Q14508).
T1 sequence: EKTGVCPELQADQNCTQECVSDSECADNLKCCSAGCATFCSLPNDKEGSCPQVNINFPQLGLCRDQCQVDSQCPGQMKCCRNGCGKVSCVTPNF
Description: co-IP; 2 ug anti-HE4 antibody (ab200828), anti-ZNF703 antibody or rabbit IgG added to 500 ug protein lysate of CAOV3 or OVCAR3 cells, 4 °C overnight; protein A/G PLUS-Agarose beads 6 h; western blot; both directions. On the technique in general: Immunoblotting shows a protein as a band on a membrane.

Assay [2] addresses zinc finger protein 703 (human (endogenous in CAOV3 and OVCAR3)) (UniProt Q9H7S9). The assay is described as above.

These are yes or no findings as the source states them, for the method shown. Binding seen in cells or lysates may run through a third protein. Some entries that bind do so weakly or less than the wild type.

On to “zinc finger protein 703 (from UniProt Q9H7S9 1-590)”, for which the binding entry in assay [1] is “binds”.

B1: HE4 (protein, UniProt Q14508 31-124)
chain: T1 sequence
For the molecule B1, the binding result in assay [2] is on record as “binds”.
